Some of these results come from one statement about several compounds together. For part of these data: For at least one compound, name, drawing or mass did not settle the structure.
Experiments:
MV4:11 cell line = experiment: Anti-proliferation study; type: cell-based; settings: compared to CC001, FIG. 7
other cancer cell lines = experiment: Toxicity against other cancer cell lines; type: cell-based

Row | SMILES | anti-proliferation activity (MV4:11 cell line) | toxicity against other cancer cell lines (other cancer cell lines)
1 | CC(C)N(C[C@H]1C[C@@H](n2cc(C(F)(F)F)c3c(N)ncnc32)[C@H](O)[C@@H]1O)C1CC(CCc2nc3cc(C(C)(C)C)ccc3[nH]2)C1 (stereo partly drawn) [Example 4, (1R,2S,3R,5R)-3-(4-amino-5-(trifluoromethyl)-7H-pyrrolo[2,3-d]pyrimidin-7-yl)-5-(((3-(2-(5-(tert-butyl)-1H-benzo[d]imidazol-2-yl)ethyl)cyclobutyl)(isopropyl)amino)methyl)cyclopentane-1,2-diol] | improved the activity | exhibited certain level of the toxicity against other cancer cell lines
2 | CC(C)N(C[C@H]1C[C@@H](n2cc(Br)c3c(N)ncnc32)[C@H](O)[C@@H]1O)C1CC(CCc2nc3ccc(C(C)(C)C)cc3[nH]2)C1 (stereo partly drawn) [Example 3, (1R,2S,3R,5R)-3-(4-amino-5-bromo-7H-pyrrolo[2,3-d]pyrimidin-7-yl)-5-(((3-(2-(6-(tert-butyl)-1H-benzo[d]imidazol-2-yl)ethyl)cyclobutyl)(isopropyl)amino)methyl)cyclopentane-1,2-diol] | improved the activity | exhibited certain level of the toxicity against other cancer cell lines
3 | CC(C)N(C[C@H]1C[C@@H](n2cc(Cl)c3c(N)ncnc32)[C@H](O)[C@@H]1O)C1CC(CCc2nc3ccc(C(C)(C)C)cc3[nH]2)C1 (stereo partly drawn) [Example 2, (1R,2S,3R,5R)-3-(4-amino-5-chloro-7H-pyrrolo[2,3-d]pyrimidin-7-yl)-5-(((3-(2-(6-(tert-butyl)-1H-benzo[d]imidazol-2-yl)ethyl)cyclobutyl)(isopropyl)amino)methyl)cyclopentane-1,2-diol] | improved the activity | exhibited certain level of the toxicity against other cancer cell lines

From patent US9458165B2, “DOT1L inhibitors” (Dana-Farber Cancer Institute, Inc., priority 2014, dated 2016)
